Over roughly 33,000 sequences, “E-score (-0.5 to 0.5)” has its median near -0.0059; the highest 2% begin near 0.26. The list shows a part of the results.
target: T1, Cin5 (UniProt P40917); test: PBM E-score (8-mer binding enrichment) (E-score (-0.5 to 0.5)); higher = stronger / more preferred TF binding; details: protein concentration: 100 nM; construct: GST-full length
T1 sequence: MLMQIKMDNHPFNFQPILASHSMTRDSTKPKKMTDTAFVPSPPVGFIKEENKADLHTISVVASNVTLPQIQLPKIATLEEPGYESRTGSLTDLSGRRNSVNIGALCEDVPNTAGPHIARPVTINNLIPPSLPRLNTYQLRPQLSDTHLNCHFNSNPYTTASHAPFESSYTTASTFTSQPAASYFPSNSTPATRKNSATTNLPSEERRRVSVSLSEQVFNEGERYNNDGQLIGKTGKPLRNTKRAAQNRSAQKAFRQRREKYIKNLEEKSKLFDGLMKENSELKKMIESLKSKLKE
Procedure, shortened: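 GST-tagged yeast TFs (full-length or DNA-binding domain) were made by PURExpress in vitro transcription/translation and applied at about 100-200 nM to universal all-10-mer Agilent arrays. The arrays were made double-stranded by primer extension, on fresh or once-stripped slides. Bound protein was detected with fluorescent anti-GST, and scans were normalised with masliner. Each ungapped eight-base word, pooled with its reverse complement, received an E-score (modified Wilcoxon-Mann-Whitney statistic) from the Universal PBM Analysis Suite.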

| Sequence | PBM E-score |
| --- | --- |
| AAAGCCTC | -0.109 |
| GGATACCA | -0.0155 |
| GAGAGTAC | -0.134 |
| GATACCGA | -0.112 |
| CAGTAACG | -0.0731 |
| TACCTCGA | -0.0145 |
| AACACAGT | 0.12 |
| TCCCATAA | 0.0854 |
| CGTTCAAG | -0.0617 |
| GGGCTGGA | -0.2 |
| ACAGTGGC | -0.0208 |
| GCAGAGGA | -0.116 |
| CATCTACG | 0.137 |
| AAGAGATC | -0.103 |
| AGCCCCAC | -0.0333 |
| AAACTCGC | 0.0546 |
| CCACTTAA | 0.0597 |
| CCGCTTCC | -0.0726 |
| ACAGTTGC | -0.00566 |
| ATTTACCA | 0.0393 |
| AGGTGCTC | -0.369 |
| GGGGAGCA | -0.281 |
| CTGCAAAG | -0.162 |
| AACCGGAG | -0.0396 |
| GCCGCCAC | -0.287 |

| Sequence | PBM E-score |
| --- | --- |
| CGGTAATC | -0.0552 |
| CTATCCTA | -0.111 |
| CTCCACAC | -0.0294 |
| ATGGTTAG | 0.165 |
| GCAAATCC | 0.0128 |
| AGCATCCA | -0.111 |
| CAGCTAAG | -0.252 |
| ACAACGTG | 0.00786 |
| CTGAAGTA | 0.0817 |
| GGCTAGAC | -0.232 |
| CGGCAACG | -0.233 |
| CTGCTTAA | 0.00628 |
| CCAGTTAG | 0.116 |
| CTGCCCAG | -0.249 |
| CCACCGCC | 0.00825 |
| GAGACTCA | -0.0361 |
| ATTTGGCA | 0.00273 |
| CCATTGCA | -0.0214 |
| ACTTACTG | 0.0622 |
| CCGTAGCC | -0.239 |
| ACCGACCG | -0.0565 |
| AGTTCTAC | -0.141 |
| CAATTGAC | 0.0562 |
| CTCGAACA | -0.0292 |
| ACTCATGG | 0.113 |

| Sequence | PBM E-score |
| --- | --- |
| AGGGGCTG | 0.0194 |
| ATTTCTTC | 0.0613 |
| AGATGAAG | -0.21 |
| GGCAACCA | -0.0499 |
| GCCTGTTA | 0.00827 |
| ACAAATTC | 0.183 |
| CAATCGGC | 0.00797 |
| CAGTATTC | 0.144 |
| CCAAGCTC | 0.0192 |
| CACAATAA | 0.0141 |
| CCTGACAG | -0.0301 |
| GCCGCACC | -0.119 |
| GCCAAACA | -0.00747 |
| TGTGCCAA | 0.123 |
| GCCGAAAA | 0.111 |
| CTGTACGC | -0.108 |
| CTAGTGCA | 0.104 |
| AGTCAACT | -0.157 |
| GCTCGGCC | -0.284 |
| GCAAAGCA | -0.182 |
| CTATCGAC | -0.227 |
| AATCGGGA | 0.0847 |
| ACAGTACT | -0.0867 |
| CTCCCGTC | 0.0274 |
| AGGGCTCA | -0.294 |

| Sequence | PBM E-score |
| --- | --- |
| CCTATCTC | 0.0294 |
| CTGGAGCA | -0.0335 |
| GACGGCTC | -0.225 |
| TATGGCAA | 0.0984 |
| AAATACCC | 0.126 |
| AAGCTTGT | 0.101 |
| CGAGCTTA | 0.0596 |
| CCTGATCC | -0.0141 |
| GCCGTCAA | -0.118 |
| AGCGACAA | 0.0318 |
| AAGGTTTG | 0.0882 |
| GTTTGGCA | -0.131 |
| CTTCTGCC | -0.064 |
| AAGTTCGA | 0.105 |
| ATGCCTGC | -0.111 |
| CTACGTAA | 0.24 |
| ATGGAGGC | -0.119 |
| CATACAGA | 0.0894 |
| AGGGCGGA | -0.186 |
| ACCAAGTG | -0.209 |
| AGGGACTC | -0.333 |
| CGTGTCCA | -0.181 |
| GATTAAAC | 0.115 |
| AGAACCTG | -0.127 |
| ATGTCGTA | 0.0328 |

| Sequence | PBM E-score |
| --- | --- |
| TAACGATA | 0.22 |
| ATATTTCC | 0.11 |
| CCTGTCCC | -0.315 |
| AATGGTGT | 0.0703 |
| TATGCCGA | 0.0576 |
| TGATCGAA | 0.0734 |
| GTCGGCGA | -0.23 |
| CAGCTCAG | 0.0758 |
| ATTCGAAG | 0.0877 |
| TAGAGCAA | -0.0369 |
| AGCTAAAA | -0.0663 |
| ATGGCATG | 0.0725 |
| ACAGCCTC | -0.238 |
| CATTTTAG | 0.137 |
| CGCTCCAC | -0.165 |
| TCTTTACA | 0.187 |
| GGTTCGTA | 0.142 |
| CCCTTCAC | -0.159 |
| CTTTTGTC | 0.0908 |
| TATCACAA | 0.18 |
| CTGCCGTA | -0.12 |
| GCACCATA | 0.0072 |
| GACCCTAC | -0.109 |
| GGTCGAAA | -0.0987 |
| AGGGCCTC | -0.297 |

| Sequence | PBM E-score |
| --- | --- |
| CGCGGTAA | 0.0578 |
| AAGGCTGT | -0.197 |
| ATAGCGAT | 0.0976 |
| GGTACTCA | 0.0119 |
| TCGATGAA | 0.108 |
| ATTCTCTC | 0.0677 |
| ATCATCAA | 0.145 |
| AAGTGAGA | -0.0435 |
| TAACTGCA | 0.181 |
| CTACAATA | 0.137 |
| CGCTCGTA | -0.0211 |
| GCTACAAC | -0.0423 |
| TAGCGGGA | -0.152 |
| AGTCGCTG | -0.0219 |
| TAAGTGGA | 0.119 |
| ATTCAACC | -0.0256 |
| ACAGTAAG | 0.112 |
| ATCTCCAA | 0.118 |
| CCGGAAGC | 0.0511 |
| CGGTCTCA | -0.253 |
| GTCCCTCA | -0.0572 |
| AGTTAAAT | -0.078 |
| GTCAAGCA | -0.272 |
| GGGCATGA | -0.168 |
| ACGAGGCT | 0.034 |

Taken from above:
PBM E-score with ACAGTAAG is entered as 0.112
PBM E-score with ACGAGGCT is entered as 0.034
PBM E-score with ATAGCGAT is entered as 0.0976

(list continues)

| Sequence | PBM E-score |
| --- | --- |
| CTAATGGA | -0.025 |
| CTATATTC | 0.0546 |
| CCCCGATC | -0.00403 |
| TAGGGGGA | -0.322 |
| TTTCAAAA | 0.0682 |
| AACTGGTA | -0.00478 |
| TCAGCAGA | -0.0484 |
| AGTACACT | -0.0432 |
| GTTCCGAA | 0.225 |
| AACGAGGT | -0.0717 |
| GTGTTTTA | 0.0913 |
| CCTCCGGA | -0.136 |
| ATTAACCA | 0.0718 |
| CCGAGCAG | -0.165 |
| AACACCAG | -0.0996 |
| AGGGGGAC | -0.409 |
| ACCGCTTC | -0.186 |
| CCAGGTGA | -0.0892 |
| GTATCTTA | 0.251 |
| CCAAATAA | 0.166 |
| ATGGTATG | 0.043 |
| AAATCAAG | 0.164 |
| ACATGACA | 0.0953 |
| ACCTAACC | 0.213 |
| CCAATCTC | 0.139 |

| Sequence | PBM E-score |
| --- | --- |
| ACCCAACC | 0.00819 |
| TCGGCAGA | -0.0269 |
| AAGAACTT | -0.0497 |
| AGGTGCCA | -0.0425 |
| CTTGATGC | -0.0757 |
| AGATGGAG | 0.0972 |
| GAAAAAAC | 0.0376 |
| CTTTCTCA | 0.0938 |
| ATAATGAT | 0.241 |
| GCGGTAGC | -0.00413 |
| ATACCACA | 0.126 |
| ATACGGTA | 0.086 |
| CACCTGGC | -0.139 |
| GAGTAGGC | -0.0301 |
| CTTCGTTC | -0.0885 |
| CGAGACCC | -0.0551 |
| CGTGTTCC | 0.02 |
| GCGTCTCC | -0.128 |
| GAGACGAA | 0.0297 |
| ACCGGGAA | 0.15 |
| AGGGGTAC | -0.103 |
| CTATTCAA | 0.185 |
| GTGACACA | 0.096 |
| GGGAGTAA | -0.0267 |
| AGCTTGGC | -0.165 |

Five consecutive entries from above:

| Sequence | PBM E-score |
| --- | --- |
| AAGAACTT | -0.0497 |
| AGGTGCCA | -0.0425 |
| CTTGATGC | -0.0757 |
| AGATGGAG | 0.0972 |
| GAAAAAAC | 0.0376 |

More records:

| Sequence | PBM E-score |
| --- | --- |
| ACTCATTG | -0.0555 |
| AGCACGCG | -0.0209 |
| CAGGCCAC | -0.118 |
| AGTAGATG | 0.0868 |
| CCGCTAAG | -0.0258 |
| CGGGCCCG | 0.188 |
| AGCTCCGA | -0.0183 |
| CAGACGCG | -0.152 |
| GCCTTTGA | -0.0143 |
| GTAGTTAA | 0.0886 |
| ACTTAGGA | -0.229 |
| AGAGCTGG | -0.17 |
| GGGGCCAA | -0.0517 |
| GACTGTAA | 0.0919 |
| GGAGCCCA | -0.254 |
| TACGGCTA | -0.0986 |
| AGCCTTCC | -0.211 |
| ATCGGTTC | 0.0536 |
| CAGATGAG | 0.0638 |

— the supplement of paper PMC3334620
